The values below come from PMC12501252.

Protein sequences, listed by entry. Tags and fused reporters are not part of them. Residues count along the entry.
UniProt Q07021, residues 74-282: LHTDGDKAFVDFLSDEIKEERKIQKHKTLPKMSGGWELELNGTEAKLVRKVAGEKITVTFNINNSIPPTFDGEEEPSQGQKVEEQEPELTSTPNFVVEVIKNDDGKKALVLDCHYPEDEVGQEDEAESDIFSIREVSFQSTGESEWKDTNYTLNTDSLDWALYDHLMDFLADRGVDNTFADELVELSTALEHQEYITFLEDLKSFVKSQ

These are yes or no findings as the source states them, for the method shown. For part of these data: Binding seen in cells or lysates may run through a third protein. Some results given as binding are weak or reduced against the parent protein; the word gives no strength.

Experiment [1] has as its target T1, CHCHD10 (human) (human (endogenous in HEK293T)) (UniProt Q8WYQ3).
T1 sequence: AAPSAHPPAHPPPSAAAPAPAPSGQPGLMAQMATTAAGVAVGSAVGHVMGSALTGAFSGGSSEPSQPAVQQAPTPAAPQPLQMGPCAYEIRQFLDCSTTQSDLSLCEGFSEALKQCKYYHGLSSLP
Kind of experiment: co-IP; endogenous CHCHD2 or CHCHD10 immunoprecipitated with antibodies on Dynabeads Protein G from mitochondria of HEK293T cells lysed in 10 mM Tris-HCl pH 7.5, 150 mM NaCl, 1% digitonin; 2 h at 4 °C; eluates analysed by Western blot.

The target in experiment [2] is T2, CHCHD2 (human) (human (endogenous in HEK293T)) (UniProt Q9Y6H1).
T2 sequence: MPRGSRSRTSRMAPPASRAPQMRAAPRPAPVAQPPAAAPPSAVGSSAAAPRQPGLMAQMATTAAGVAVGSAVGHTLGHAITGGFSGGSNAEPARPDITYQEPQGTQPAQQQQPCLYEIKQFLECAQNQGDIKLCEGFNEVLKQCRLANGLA
The experiment is described as above.

Experiment [3] addresses T3, CHCHD3 (mouse) (mouse (endogenous in mouse tissues)) (UniProt Q9CRB9).
T3 sequence: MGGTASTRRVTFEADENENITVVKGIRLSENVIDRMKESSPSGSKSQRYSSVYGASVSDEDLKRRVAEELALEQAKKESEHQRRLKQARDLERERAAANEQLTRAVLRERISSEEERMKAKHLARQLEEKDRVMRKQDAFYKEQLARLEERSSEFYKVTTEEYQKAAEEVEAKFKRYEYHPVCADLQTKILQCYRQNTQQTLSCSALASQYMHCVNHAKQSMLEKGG
Kind of experiment: native gel or EMSA; two-dimensional BN-PAGE/SDS-PAGE with Western blot; mitochondria from brain, heart and skeletal muscle of Chchd2+/+ and Chchd2-/- mice, and from heart, skeletal muscle and liver of mouse models of mitochondrial dysfunction (RNaseH1, Tfam, Tefm knockouts, IMT treatment) and controls; solubilised in 1% DDM or 1% digitonin.

For “p32 (C1QBP) (human) (from UniProt Q07021 74-282)”, the binding result in experiment [1] and in experiment [2] was “binds” throughout.

B1: CHCHD2 (mouse) (protein, UniProt Q9D1L0 1-153)
chain: MPRGSRSRTSRVTPPASRAPQMRAAPRRAPAAQPPAAAAPSAVGSPAAAPRQPGLMAQMATTAAGVAVGSAVGHTLGHAITGGFSGGGSAEPAKPDITYQEPQGAQLQNQQSFGPCSLEIKQFLECAQNQSDVKLCEGFNEVLRQCRIANGLM
Take B1: in experiment [3], the binding result is “no binding”.
